Values of other authors, collected in patent publication US8440669B2, “Pharmaceutical composition for prevention and treatment of diabetes or obesity comprising a compound that inhibits activity of dipeptidyl peptidase-IV, and other antidiabetic or antiobesity agents as active ingredients” (Dong-A Pharmaceutical Co. Ltd., priority 2008, dated 2013).
At least one structure is not confirmed: it was looked up by name or label, or the drawing left a doubt.

Conditions: glucose tolerance test, single administration; cited from earlier work

**Q.** Which “area under curve (AUC) decreased” value does the source give for `CC(C)OC(=O)C(C)(C)Oc1ccc(C(=O)c2ccc(Cl)cc2)cc1` [fenofibrate] here?
**A.** Its value is 7%.
